For part of these data: The name of at least one read-out is uncertain. For at least one compound, name, drawing or mass did not settle the structure. Some of these results come from one statement about several compounds together.
Legend:
[1] = system: three MRSA strains (ATCC33591-lux, USA-300 and MRSA 43484); experiment: AAMP assay and checkerboard synergy, summary; assay type: cell-based, Staphylococcus aureus; conditions: for MIC, single antimicrobial: All three strains; for reduction of MIC when combined: GarKS with Amp or PenG
Experimental: Briefly, equal amounts of antimicrobial A were applied on microtiter plate 1 in wells A1-H1 and then diluted two-fold to wells 2-12. Similarly, equal amounts of antimicrobial B were applied on microtiter plate 2 in wells A1-A12 and diluted two-fold in wells B-H. Volumes of 50 μl of antimicrobial A from each well of microtiter plate 1 were transferred into microtiter plate 3, except for wells H1-H12. Similarly, the same volumes were transferred from microtiter plate 2 into plate 3, except for wells A1-A8. […] A 50 μl volume of pure broth was added into each well in lines H1-H12 and A1-A8 which were used to estimate MIC values of pure substances (blank).
Three-component synergy was assessed by mixing the three components (100 μg of PenG, 50 μg of GarKS and 2.5 μg of MP1) into one well of a microtiter plate, compared with activity of individual antimicrobials on the same plate.

[2] = system: Methicillin-Resistant Staphylococcus aureus; assay type: in vivo, mice; conditions: repeat on larger groups; data not shown
Experimental: The experiment was performed essentially as set out in Example 2, except that the following regimes as described below, were used.
50-70 μl of cream was applied per wound.
Treatment was daily for 4 days.
The rifampicin/MP1 experiment was repeated on a larger group of mice in each category (8 mice for each of rifampicin, MP1, rifampicin+MP1, 8 mice with APO base cream 30% as used for rifampicin and MP1, 7 mice untreated). Seven mice were also treated with fucidin cream (2% fusidic acid in a cream base) as a positive control.

**Q.** For `CC1(C)S[C@@H]2[C@H](NC(=O)[C@H](N)c3ccccc3)C(=O)N2[C@H]1C(=O)O` [Amp, Ampicillin], which “MIC, single antimicrobial” value [1] is on record?
**A.** <2500 µg/mL

**Q.** And the “reduction of MIC when combined” value [1]?
**A.** at least 150 times

**Q.** `NC[C@H]1O[C@H](O[C@H]2[C@H](O)[C@@H](O[C@H]3O[C@H](CO)[C@@H](O)[C@H](N)[C@H]3O)[C@H](N)C[C@@H]2N)[C@H](O)[C@@H](O)[C@@H]1O` [Kan, Kanamycin] was tested. Which “synergy with GarKS” value ([1]; checkerboard assay) did it give?
**A.** no synergy or only additive effects

**Q.** `CC1(C)S[C@@H]2[C@H](NC(=O)Cc3ccccc3)C(=O)N2[C@H]1C(=O)O` [Penicillin G] was tested. Which “MIC, single antimicrobial” value ([1]; listed as PenG) did it give?
**A.** <2500 µg/mL

**Q.** What about the “reduction of MIC when combined” value [1] of the same molecule?
**A.** at least 150 times

**Q.** With `CO[C@H]1/C=C/O[C@@]2(C)Oc3c(C)c(O)c4c(O)c(c(/C=N/N5CCN(C)CC5)c(O)c4c3C2=O)NC(=O)/C(C)=C\C=C\[C@H](C)[C@H](O)[C@@H](C)[C@@H](O)[C@@H](C)[C@H](OC(C)=O)[C@@H]1C` [Rifampicin] as the molecule, how does the “antimicrobial effect in the mouse skin wound model” value [2] read?
**A.** significant antimicrobial effect

Source: patent US20240041976A1, “COMPOSITION AND USE” (priority 2020, published 2024)
